We go through one substance from paper PMC8392014.

The chains behind the UniProt entries cited, without tags or fusion partners. Residues count along the entry.
UniProt P12579, residues 161-241: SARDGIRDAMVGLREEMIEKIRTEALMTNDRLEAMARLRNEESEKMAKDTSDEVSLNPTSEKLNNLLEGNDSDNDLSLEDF
UniProt P03418: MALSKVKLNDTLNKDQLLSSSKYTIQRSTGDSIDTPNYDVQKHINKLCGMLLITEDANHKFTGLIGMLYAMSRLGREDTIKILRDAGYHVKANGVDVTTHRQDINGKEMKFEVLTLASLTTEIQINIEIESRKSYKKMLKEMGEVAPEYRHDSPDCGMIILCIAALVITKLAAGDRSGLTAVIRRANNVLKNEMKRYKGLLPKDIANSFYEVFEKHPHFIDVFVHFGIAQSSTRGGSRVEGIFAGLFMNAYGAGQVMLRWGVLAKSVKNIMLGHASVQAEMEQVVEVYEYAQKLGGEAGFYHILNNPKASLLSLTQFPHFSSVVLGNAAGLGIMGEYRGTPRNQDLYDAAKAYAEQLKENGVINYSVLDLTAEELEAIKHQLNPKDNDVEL

The target in this assay is RSV phosphoprotein fragment P_(161–241) (respiratory syncytial virus (RSV)) (UniProt P12579). The experiment in a line: NMR titration; N-RNA rings added to P161-241 in the presence of garcinol; the read-out is not named in the sentence (garcinol mixtures were analysed by NMR, 293 K for P161-241); both purified.

No constants are given. Whether binding was seen depends on the method and setting. Some entries that bind do so weakly or less than the wild type.

Take “RSV N protein in the form of N-RNA rings (from UniProt P03418 1-391)”: the binding result was “binds”.
